Data from US20250163055A1, “POLYMORPH OF JAK TYROSINE KINASE INHIBITOR AND PREPARATION METHOD THEREFOR” (Prime Gene Therapeutics Co., Ltd., priority 2022, published 2025).
The name of at least one read-out is uncertain.

Experiment: Pharmacokinetic experiment in male SD rats (oral, intravenous, transdermal)
Assay type: in vivo, rat
Conditions: summary
Protocol: The solid powders of Examples 1 and 6, and the hydrogel preparations thereof were taken, and the PK values of rats administered by oral gavage and transdermal application were respectively determined. Male SD rats were divided into groups, 3 rats in each group, and were administered the compounds obtained in Examples 1 and 6 by oral gavage (oral group). administered Example 1 intravenously (intravenous group), and administered the gel preparations prepared from the compounds of Examples 1 and 6 topically to the skin (transdermal group). Animals were fasted overnight before the experiment, and the fasting time ranged from 10 hours before administration to 4 hours after administration. Blood was collected at 0.25, 0.5, 1, 2, 4, 6, 8 and 24 hours after administration in oral group and transdermal group, and at 0.083, 0.25, 0.5, 1, 2, 4, 6, 8 and 24 hours after administration in intravenous group. […] Plasma was extracted by protein precipitation method, and the extract was analyzed by LC/MS/MS. The transdermal group was administered for 24 hours and the skin at the administration site was peeled off after washing off the epidermal drug, and the drug content in the skin was analyzed by LC/MS/MS after homogenization.

Compound: CC(C)S(=O)(=O)N1CC(CC#N)(n2cc(-c3ncnc4[nH]ccc34)c(N)n2)C1 [Example 1, 2-{3-[3-amino-4-(7H-pyrrolo[2,3-d]pyrimidin-4-yl)-1H-pyrazol-1-yl]-1-(isopropylsulfonyl)azetidin-3-yl}acetonitrile crystal form I]
- oral bioavailability compared with crystal form IIb (result in words): higher solubility and oral bioavailability than crystal form IIb
